Results reported in US20170044234A1 (INSERM INSTITUT NATIONAL DE LA SANTE ET DE LA RECHERCHE …, published 2017).
No constants are given. Whether binding was seen depends on the method and setting. Some binding calls cover weakened binding; strength is not graded here. For some assays here: Sequences can lack the tags named with a protein. Values belong to the binder of their own block, whether it stands above or below them.

Experiments:
GFP-fused CD95^1-210 = target: T1, GFP-fused CD95^1-210 (human, UniProt P25445 17-226); assay: CD95 immunoprecipitation from HEK cells co-transfected with GFP-fused CD95 constructs and PLCγ1, stimulated with CD95L, immunoblot
T1 construct: also called CD95 construct devoid of DD; not shown: GFP of vector pEGFP-N1 (Clontech), fused C-terminally
T1 sequence: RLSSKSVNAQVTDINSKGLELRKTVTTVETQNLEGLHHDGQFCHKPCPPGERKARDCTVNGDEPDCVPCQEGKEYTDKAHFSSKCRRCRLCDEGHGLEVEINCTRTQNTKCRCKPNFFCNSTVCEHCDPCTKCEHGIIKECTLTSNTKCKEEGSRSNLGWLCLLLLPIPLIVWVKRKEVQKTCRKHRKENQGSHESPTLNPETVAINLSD

[1] = target: GFP-fused CD95^1-303 (human) (UniProt P25445); assay: as above
[2] = target: GFP-fused wild type human CD95 (human) (UniProt P25445); assay: as above
[3] = target: human CD95 (endogenous receptor of T cells and HEK cells) (human) (UniProt P25445); assay: CD95 immunoprecipitation from CEM cells stimulated with CD95L, immunoblot
[4] = target: human CD95 (endogenous receptor of T cells and HEK cells) (human) (UniProt P25445); assay: CD95 immunoprecipitation from stimulated T cells, immunoblot

binding (GFP-fused CD95^1-210): binds
binding [1]: binds
binding [2]: binds
B1: Myc-tagged full-length human PLCγ1 (enzyme, UniProt P19174 1-1290, looked up, not shown: small tags and cut ends)
chain: MAGAASPCANGCGPGAPSDAEVLHLCRSLEVGTVMTLFYSKKSQRPERKTFQVKLETRQITWSRGADKIEGAIDIREIKEIRPGKTSRDFDRYQEDPAFRPDQSHCFVILYGMEFRLKTLSLQATSEDEVNMWIKGLTWLMEDTLQAPTPLQIERWLRKQFYSVDRNREDRISAKDLKNMLSQVNYRVPNMRFLRERLTDLEQRSGDITYGQFAQLYRSLMYSAQKTMDLPFLEASTLRAGERPELCRVSLPEFQQFLLDYQGELWAVDRLQVQEFMLSFLRDPLREIEEPYFFLDEFVTFLFSKENSVWNSQLDAVCPDTMNNPLSHYWISSSHNTYLTGDQFSSESSLEAYARCLRMGCRCIELDCWDGPDGMPVIYHGHTLTTKIKFSDVLHTIKEHAFVASEYPVILSIEDHCSIAQQRNMAQYFKKVLGDTLLTKPVEISADGLPSPNQLKRKILIKHKKLAEGSAYEEVPTSMMYSENDISNSIKNGILYLEDPVNHEWYPHYFVLTSSKIYYSEETSSDQGNEDEEEPKEVSSSTELHSNEKWFHGKLGAGRDGRHIAERLLTEYCIETGAPDGSFLVRESETFVGDYTLSFWRNGKVQHCRIHSRQDAGTPKFFLTDNLVFDSLYDLITHYQQVPLRCNEFEMRLSEPVPQTNAHESKEWYHASLTRAQAEHMLMRVPRDGAFLVRKRNEPNSYAISFRAEGKIKHCRVQQEGQTVMLGNSEFDSLVDLISYYEKHPLYRKMKLRYPINEEALEKIGTAEPDYGALYEGRNPGFYVEANPMPTFKCAVKALFDYKAQREDELTFIKSAIIQNVEKQEGGWWRGDYGGKKQLWFPSNYVEEMVNPVALEPEREHLDENSPLGDLLRGVLDVPACQIAIRPEGKNNRLFVFSISMASVAHWSLDVAADSQEELQDWVKKIREVAQTADARLTEGKIMERRKKIALELSELVVYCRPVPFDEEKIGTERACYRDMSSFPETKAEKYVNKAKGKKFLQYNRLQLSRIYPKGQRLDSSNYDPLPMWICGSQLVALNFQTPDKPMQMNQALFMTGRHCGYVLQPSTMRDEAFDPFDKSSLRGLEPCAISIEVLGARHLPKNGRGIVCPFVEIEVAGAEYDSTKQKTEFVVDNGLNPVWPAKPFHFQISNPEFAFLRFVVYEEDMFSDQNFLAQATFPVKGLKTGYRAVPLKNNYSEDLELASLLIKIDIFPAKENGDLSPFSGTSLRERGSDASGQLFHGRAREGSFESRYQQPFEDFRISQEHLADHFDSRERRAPRRTRVNGDNRL

binding [3]: binds
binding [4]: binds
B2: phospholipase Cγ1 (PLCγ1), endogenous in human T cells (enzyme, UniProt P19174 2-1290, looked up)
chain: AGAASPCANGCGPGAPSDAEVLHLCRSLEVGTVMTLFYSKKSQRPERKTFQVKLETRQITWSRGADKIEGAIDIREIKEIRPGKTSRDFDRYQEDPAFRPDQSHCFVILYGMEFRLKTLSLQATSEDEVNMWIKGLTWLMEDTLQAPTPLQIERWLRKQFYSVDRNREDRISAKDLKNMLSQVNYRVPNMRFLRERLTDLEQRSGDITYGQFAQLYRSLMYSAQKTMDLPFLEASTLRAGERPELCRVSLPEFQQFLLDYQGELWAVDRLQVQEFMLSFLRDPLREIEEPYFFLDEFVTFLFSKENSVWNSQLDAVCPDTMNNPLSHYWISSSHNTYLTGDQFSSESSLEAYARCLRMGCRCIELDCWDGPDGMPVIYHGHTLTTKIKFSDVLHTIKEHAFVASEYPVILSIEDHCSIAQQRNMAQYFKKVLGDTLLTKPVEISADGLPSPNQLKRKILIKHKKLAEGSAYEEVPTSMMYSENDISNSIKNGILYLEDPVNHEWYPHYFVLTSSKIYYSEETSSDQGNEDEEEPKEVSSSTELHSNEKWFHGKLGAGRDGRHIAERLLTEYCIETGAPDGSFLVRESETFVGDYTLSFWRNGKVQHCRIHSRQDAGTPKFFLTDNLVFDSLYDLITHYQQVPLRCNEFEMRLSEPVPQTNAHESKEWYHASLTRAQAEHMLMRVPRDGAFLVRKRNEPNSYAISFRAEGKIKHCRVQQEGQTVMLGNSEFDSLVDLISYYEKHPLYRKMKLRYPINEEALEKIGTAEPDYGALYEGRNPGFYVEANPMPTFKCAVKALFDYKAQREDELTFIKSAIIQNVEKQEGGWWRGDYGGKKQLWFPSNYVEEMVNPVALEPEREHLDENSPLGDLLRGVLDVPACQIAIRPEGKNNRLFVFSISMASVAHWSLDVAADSQEELQDWVKKIREVAQTADARLTEGKIMERRKKIALELSELVVYCRPVPFDEEKIGTERACYRDMSSFPETKAEKYVNKAKGKKFLQYNRLQLSRIYPKGQRLDSSNYDPLPMWICGSQLVALNFQTPDKPMQMNQALFMTGRHCGYVLQPSTMRDEAFDPFDKSSLRGLEPCAISIEVLGARHLPKNGRGIVCPFVEIEVAGAEYDSTKQKTEFVVDNGLNPVWPAKPFHFQISNPEFAFLRFVVYEEDMFSDQNFLAQATFPVKGLKTGYRAVPLKNNYSEDLELASLLIKIDIFPAKENGDLSPFSGTSLRERGSDASGQLFHGRAREGSFESRYQQPFEDFRISQEHLADHFDSRERRAPRRTRVNGDNRL
